## Results from one PubChem assay

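A cell-based FRET test of anthrax lethal toxin entry, tracked through the 460 nm emission signal; the cell line is not named here.
Each compound was tested as a concentration series from about 0.0005 to 40 µM.
The number is the fitted AC50 of the 460 nm signal alone; lower values mean a more potent effect. A falling signal goes with compounds filed as inhibitors or cytotoxic, a rising one with activators or fluorescent compounds (inferred from the filed classes).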

Values are in µM.
Common to all entries: measured here: 460 nm channel.
Part of the compounds only, not a random draw; the main read-out is not listed here.
Potencies fitted to partial, single-point or poorly fitting curves are rough.
The first word of each remark tells which way the curve ran; it can be opposite to the aim of the assay.

| # | compound | AC50 (µM) | curve |
|---|---|---|---|
| 1 | `CN1CCc2c(sc3c2C(=O)NC(c2ccccn2)N3)C1` (configuration not stated) | 12.59 | rising, partial curve |
| 2 | `O=C1CC(N2CCN(Cc3ccccc3)CC2)C(=O)N1c1ccccc1` (configuration not stated) | 12.59 | rising, partial curve |
| 3 | `CS(=O)(=O)Nc1cccc(-c2ccc3ncnc(NC4CC4)c3c2)c1` | 6.31 | falling, partial curve |
| 4 | `CC(=O)Nc1ccc(S(=O)(=O)N2CCN(c3nc(NC4CCCC4)c4ccccc4n3)CC2)cc1` | 5.012 | falling, single point |
| 5 | `NC(=NCCC[C@H](N)C(=O)O)N[N+](=O)[O-]` | 31.62 | falling, single point |
| 6 | `[Cl-].[Cl-].[Hg+2]` | 5.012 | falling, full curve |
| 7 | `COCCCNC(=O)c1oc2ccc(S(=O)(=O)N(C)C3CCCCC3)cc2c1C` | 7.943 | falling, partial curve |
| 8 | `OC[C@@H](O)COc1cccc2ccccc12` | 12.59 | falling, partial curve |
| 9 | `CC1CCCN(S(=O)(=O)c2ccc(NC(=O)c3cccc(-n4cnnn4)c3)cc2)C1` (configuration not stated) | 6.31 | rising, partial curve |
| 10 | `O=C(c1ccccc1F)N1CCN(S(=O)(=O)c2ccc3c(c2)OCCO3)CC1` | 6.31 | rising, partial curve |
| 11 | `CCC(=O)N1CCN(c2ccc(NC(=O)c3cc4ccccc4o3)cc2Cl)CC1` | 10 | falling, partial curve |
| 12 | `COc1ccc(S(=O)(=O)Cc2ccc(C(=O)N3CCN(c4cccc(C)c4)C(C)C3)o2)cc1` (configuration not stated) | 10 | falling, partial curve |
| 13 | `CCCCNC(=O)CC(NS(=O)(=O)c1ccc(C)cc1)c1ccco1` (configuration not stated) | 0.2512 | rising, full curve |
| 14 | `O=c1[nH]c(CN2CCc3ccccc32)nc2scc(-c3cccs3)c12` | 25.12 | falling, single point |
| 15 | `COC(=O)Cc1c(C)c2cc(Cl)c(OC(=O)c3ccco3)cc2oc1=O` | 10 | rising, partial curve |
| 16 | `Cc1onc(-c2c(Cl)cccc2Cl)c1C(=O)Nc1ccc2c(c1)OCCO2` | 31.62 | falling, single point |
| 17 | `CC12C(=O)N(Cc3ccccc3)C(=O)C1C1C=CC2C1` (configuration not stated) | 5.012 | falling, single point |
| 18 | `Cc1cccn2c(=O)c3cc(C(=O)NCC4CCCO4)c(=N)n(Cc4cccnc4)c3nc12` (configuration not stated) | 5.012 | rising, single point |
| 19 | `COc1ccc(Cl)cc1NC(=O)CSc1nnc(Cc2cccn2C)n1-c1ccc(F)cc1` | 12.59 | falling, partial curve |
| 20 | `CN(C)c1ncc2nc(-c3cccs3)c(=O)n(C)c2n1` | 10 | rising, partial curve |
| 21 | `O=C(C1CCC(Cn2c(=S)[nH]c3ccccc3c2=O)CC1)N1CCOCC1` (configuration not stated) | 0.0631 | rising, full curve |
| 22 | `Cc1cc(C)cc(NC(=O)N2CCC(c3nc4ccccc4o3)CC2)c1` | 5.012 | rising, single point |
| 23 | `CS(=O)(=O)c1nc(-c2cccs2)cc(C(F)(F)F)n1` | 10 | falling, partial curve |
| 24 | `Cc1c(C(=O)OCCOC(C)C)[nH]c2c1C(=O)CC(c1ccco1)C2` (configuration not stated) | 0.2512 | falling, full curve |
| 25 | `COc1ccc(C(=O)N2CCC[C@@]3(CCN(C(=O)Nc4ccccc4)C3)C2)cc1` | 2.512 | rising, single point |
| 26 | `COc1cccc(Cn2c(=O)c(-c3cccc(C#N)c3)nc3cnc(N4CCOCC4)nc32)c1` | 1.995 | rising, full curve |
| 27 | `COc1ccc(C(c2sc3ncnn3c2O)N2CCN(c3ccccc3F)CC2)cc1OC` (configuration not stated) | 15.85 | falling, partial curve |
| 28 | `COc1cccc(Oc2c(C)oc3cc(OC(=O)N(C)C)ccc3c2=O)c1` | 0.3162 | falling, full curve, poor fit |
| 29 | `Cc1cc(NC(=O)CN2CCc3ccccc3C2)nc2c1c(=O)oc1ccccc12` | 0.07943 | falling, full curve, poor fit |
| 30 | `CC(=O)Nc1ccc(C(=O)N2CCN(C(=O)c3ccco3)CC2)cc1` | 2.512 | rising, single point |
| 31 | `Cc1cc(C)cc(NC(=O)c2nnn(Cc3cc(C)ccc3C)c2N)c1` | 12.59 | falling, partial curve |
| 32 | `Cc1cc(NC(=O)CCCS(=O)(=O)c2nc(-c3cccs3)cc(C(F)(F)F)n2)no1` | 1.585 | falling, full curve |
| 33 | `CN1CCN(c2ncc3nc(CCc4ccccc4)c(=O)n(CCc4ccccc4)c3n2)CC1` | 12.59 | rising, partial curve |
| 34 | `COCCn1c(=S)[nH]c2cc(C(=O)NCC3CCCO3)ccc2c1=O` (configuration not stated) | 1.585 | rising, full curve |
| 35 | `O=c1oc2c(CN3CCCCCC3)c(O)ccc2cc1-c1nc2ccccc2[nH]1` | 10 | rising, partial curve |
| 36 | `Cc1c(S(=O)(=O)O)ccc(N=Nc2c(O)c(C(=O)O)cc3ccccc23)c1Cl` | 0.7943 | falling, partial curve |
| 37 | `Cc1ccc2oc(=O)c3cnn(CC(=O)N4CCCCCC4)c3c2c1` | 10 | rising, single point |
| 38 | `Cc1onc(-c2ccccc2Cl)c1C(=O)Nc1ccc(-n2nncc2C(C)(C)C)cc1` | 0.2512 | falling, full curve, poor fit |
| 39 | `COc1ccccc1N1CCN(C(=O)CSc2nc3ncnc(N)c3[nH]2)CC1` | 0.1259 | falling, full curve, poor fit |
| 40 | `O=C(O)c1ccccc1/C=N\N=C1c2ccccc2-c2ccccc21` | 3.981 | falling, single point |
| 41 | `CCc1cc(/C(Cc2ccc3ccccc3n2)=N\O)c(O)cc1O` | 10 | falling, partial curve |
| 42 | `CC(C)Oc1ccc(NC(=O)Oc2ccccc2)cc1` | 31.62 | falling, partial curve |
| 43 | `CCN(CC)CCNC(=O)c1cc2c(=O)n(C)c3ccccc3c2n1C` | 10 | falling, partial curve |
| 44 | `COCCn1c(=O)c(-c2cccs2)nc2cnc(N3CCOCC3)nc21` | 10 | rising, partial curve |
| 45 | `CCCc1nc2oc3c(NCCN(C)C)ncnc3c2c2c1CCCC2` | 0.03162 | falling, full curve |
| 46 | `Cc1ccccc1NS(=O)(=O)c1cc(S(C)(=O)=O)ccc1Cl` | 0.7943 | falling, full curve, poor fit |
| 47 | `CC(=O)c1sc(Nc2nc3ccc(F)cc3s2)nc1C` | 12.59 | rising, partial curve |
| 48 | `Cn1c(=O)c(-c2cccc(C#N)c2)nc2cnc(Oc3ccccc3)nc21` | 10 | rising, partial curve |
| 49 | `CC(C)(CNS(=O)(=O)c1ccc(Cl)cc1)N1CCCCC1` | 0.03981 | falling, full curve, poor fit |
| 50 | `O=C(NCc1ccc2c(c1)OCO2)c1ccc(-c2ccc(Cl)cc2)o1` | 25.12 | falling, single point |
| 51 | `CCOC(=O)C1CCN(c2ncnc3c2oc2ccc(Br)cc23)CC1` | 3.981 | rising, full curve, poor fit |
| 52 | `COc1ccc(C2C(C(=O)N3CCN(c4ccccc4)CC3)c3ccccc3C(=O)N2C)cc1` (configuration not stated) | 31.62 | rising, single point |

Once more, the final 6:

- CC(=O)c1sc(Nc2nc3ccc(F)cc3s2)nc1C | AC50 12.59 µM (rising, partial curve)
- Cn1c(=O)c(-c2cccc(C#N)c2)nc2cnc(Oc3ccccc3)nc21 | AC50 10 µM (rising, partial curve)
- CC(C)(CNS(=O)(=O)c1ccc(Cl)cc1)N1CCCCC1 | AC50 0.03981 µM (falling, full curve, poor fit)
- O=C(NCc1ccc2c(c1)OCO2)c1ccc(-c2ccc(Cl)cc2)o1 | AC50 25.12 µM (falling, single point)
- CCOC(=O)C1CCN(c2ncnc3c2oc2ccc(Br)cc23)CC1 | AC50 3.981 µM (rising, full curve, poor fit)
- COc1ccc(C2C(C(=O)N3CCN(c4ccccc4)CC3)c3ccccc3C(=O)N2C)cc1 (configuration not stated) | AC50 31.62 µM (rising, single point)

The results are deposited in PubChem (AID912; NCATS, 2007).